Results from paper PMC12041782.
No constants are given. Whether binding was seen depends on the method and setting. Binding seen in cells or lysates may run through a third protein. Some entries that bind do so weakly or less than the wild type.

Sequences of proteins named here, by UniProt entry; tags and fusion partners are left off. Residues count along the entry.
UniProt Q9BZS1, residues 1-417: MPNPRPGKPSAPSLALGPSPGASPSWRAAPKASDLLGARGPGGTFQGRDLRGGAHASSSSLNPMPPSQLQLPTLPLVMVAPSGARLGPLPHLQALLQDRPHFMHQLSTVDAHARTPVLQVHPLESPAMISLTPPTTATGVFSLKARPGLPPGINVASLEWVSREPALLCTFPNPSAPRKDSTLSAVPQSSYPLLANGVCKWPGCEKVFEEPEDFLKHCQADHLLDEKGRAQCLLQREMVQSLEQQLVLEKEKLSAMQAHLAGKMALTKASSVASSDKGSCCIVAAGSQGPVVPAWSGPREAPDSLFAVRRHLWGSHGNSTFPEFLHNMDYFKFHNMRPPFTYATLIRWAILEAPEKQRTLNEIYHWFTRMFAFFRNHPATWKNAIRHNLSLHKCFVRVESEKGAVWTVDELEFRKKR

Key:
[1] = biological target: sequestosome-1 (SQSTM1/p62) (UniProt Q13501); test: co-IP; Co-IP of FOXP3, FXR1 with p62; cells, antibodies and bait not stated
[2] = biological target: forkhead box P3 (FOXP3), endogenous in HEK293T cells (human (endogenous in HEK293T)) (UniProt Q9BZS1); test: co-IP; endogenous proteins in 293T cells; precipitated with anti-FOXP3 or anti-FXR1 antibodies, IgG as the control
HA-FOXP3 wild type = HA-FOXP3 wild type (UniProt Q9BZS1); test: co-IP; exogenous HA-FOXP3 and Flag-FXR1 wild-type plasmids transfected into 293T cells; empty vectors as control

binding [1] | binding [2] | binding (HA-FOXP3 wild type) | Substance
binds | binds |  | FMR1 autosomal homolog 1 (FXR1), endogenous in HEK293T cells (from UniProt P51114 1-621)
 |  | binds | Flag-FXR1 wild type (from UniProt P51114 1-621)
